Results on four molecules are retold here after paper PMC3515540.

Sequences of proteins named here, by UniProt entry; tags and fusion partners are left off. A change or cut given only in a name is not applied to a line headed by its entry.
UniProt P25491: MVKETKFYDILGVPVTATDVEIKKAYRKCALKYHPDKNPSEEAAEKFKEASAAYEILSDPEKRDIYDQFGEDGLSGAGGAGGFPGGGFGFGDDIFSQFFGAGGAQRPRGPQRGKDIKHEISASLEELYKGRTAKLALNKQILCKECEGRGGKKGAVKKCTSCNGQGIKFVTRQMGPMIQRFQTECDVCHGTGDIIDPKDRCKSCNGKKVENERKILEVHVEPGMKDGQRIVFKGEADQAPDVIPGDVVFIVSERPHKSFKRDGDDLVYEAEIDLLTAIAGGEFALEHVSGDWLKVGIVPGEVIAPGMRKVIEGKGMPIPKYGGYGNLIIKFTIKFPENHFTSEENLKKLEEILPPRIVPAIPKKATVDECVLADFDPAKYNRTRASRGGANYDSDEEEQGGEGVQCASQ

Assay [1] concerns the target Sis1_Δ_(121–257) (yeast) (UniProt P25294). The experiment in a line: SEC-MALLS; Superdex 200 10/300 GL, buffer A with 4 M urea, 50–75 µM protein, incubated 1 h at room temperature; both purified.
The target in assay [2] is wild-type Sis1 (yeast) (UniProt P25294). The experiment in a line: AUC; sedimentation velocity, 250–750 µg/mL protein, 40,000 rpm, 20°C, buffer A with 4 M urea; both purified.
Assay [3] shares this target. In words: SEC-MALLS; Superdex 200 10/300 GL, buffer A with 4 M urea, 50–75 µM protein, incubated 1 h at room temperature; both purified.
For assay [4], the target named is SYS (Sis1_(1–121)-Ydj1_(101–255)-Sis1_(258–352)) (yeast) (UniProt P25294+P25491). The assay is described as above.
The target of assay [5] is Sis1_Δ_(124–174) (yeast) (UniProt P25294). The assay is described as above.

These are yes or no findings as the source states them, for the method shown.

B1: Sis1_Δ_(121–257) (protein, UniProt P25294)
chain: MVKETKLYDLLGVSPSANEQELKKGYRKAALKYHPDKPTGDTEKFKEISEAFEILNDPQKREIYDQYGLEAARSGGPSFGPGGPGGAGGAGGFPGGAGGFSGGHAFSNEDAFNIFSQFFGHPNFKRDGDDLIYTLPLSFKESLLGFSKTIQTIDGRTLPLSRVQPVQPSQTSTYPGQGMPTPKNPSQRGNLIVKYKVDYPISLNDAQKRAIDENF
On to B1, for which the binding entry in assay [1] is on record as “no binding (condition: in 4 M urea)”.

B2: wild-type Sis1 (protein, UniProt P25294 1-352)
chain: MVKETKLYDLLGVSPSANEQELKKGYRKAALKYHPDKPTGDTEKFKEISEAFEILNDPQKREIYDQYGLEAARSGGPSFGPGGPGGAGGAGGFPGGAGGFSGGHAFSNEDAFNIFSQFFGGSSPFGGADDSGFSFSSYPSGGGAGMGGMPGGMGGMHGGMGGMPGGFRSASSSPTYPEEETVQVNLPVSLEDLFVGKKKSFKIGRKGPHGASEKTQIDIQLKPGWKAGTKITYKNQGDYNPQTGRRKTLQFVIQEKSHPNFKRDGDDLIYTLPLSFKESLLGFSKTIQTIDGRTLPLSRVQPVQPSQTSTYPGQGMPTPKNPSQRGNLIVKYKVDYPISLNDAQKRAIDENF
B2: the binding result in assay [2] and in assay [3] was “no binding (condition: in 4 M urea)” throughout.

B3: SYS (Sis1_(1–121)-Ydj1_(101–255)-Sis1_(258–352)) (protein, UniProt P25294 1-121; P25491 101-255; P25294 258-352)
chain: MVKETKLYDLLGVSPSANEQELKKGYRKAALKYHPDKPTGDTEKFKEISEAFEILNDPQKREIYDQYGLEAARSGGPSFGPGGPGGAGGAGGFPGGAGGFSGGHAFSNEDAFNIFSQFFGGAGGAQRPRGPQRGKDIKHEISASLEELYKGRTAKLALNKQILCKECEGRGGKKGAVKKCTSCNGQGIKFVTRQMGPMIQRFQTECDVCHGTGDIIDPKDRCKSCNGKKVENERKILEVHVEPGMKDGQRIVFKGEADQAPDVIPGDVVFIVSERPHPNFKRDGDDLIYTLPLSFKESLLGFSKTIQTIDGRTLPLSRVQPVQPSQTSTYPGQGMPTPKNPSQRGNLIVKYKVDYPISLNDAQKRAIDENF
Turning to B3, the binding entry in assay [4] is on record as “no binding (condition: in 4 M urea)”.

B4: Sis1_Δ_(124–174) (protein, UniProt P25294)
chain: MVKETKLYDLLGVSPSANEQELKKGYRKAALKYHPDKPTGDTEKFKEISEAFEILNDPQKREIYDQYGLEAARSGGPSFGPGGPGGAGGAGGFPGGAGGFSGGHAFSNEDAFNIFSQFFGGSSTYPEEETVQVNLPVSLEDLFVGKKKSFKIGRKGPHGASEKTQIDIQLKPGWKAGTKITYKNQGDYNPQTGRRKTLQFVIQEKSHPNFKRDGDDLIYTLPLSFKESLLGFSKTIQTIDGRTLPLSRVQPVQPSQTSTYPGQGMPTPKNPSQRGNLIVKYKVDYPISLNDAQKRAIDENF
B4: the binding result in assay [5] is reported as “no binding (condition: in 4 M urea)”.
